PubChem BioAssay AID504784 | Drosophila RNAi Screening Center, 2011

Assay: 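Search for regulators of lipid droplet storage in oleate-fed fly cells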 (primary screen)
Cell system: Drosophila Kc167 embryonic cells
Reagent: long dsRNA against Drosophila genes, about 250 ng dsRNA per well
Timing: 4 days
Treatment: cells fed 400 µM oleic acid bound to BSA
Read-out: 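Cells imaged and segmented; ratio of lipid droplet area to nuclear area, log-transformed, then normalised as a B-score over the screen; higher means more stored lipid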
Reading the numbers: droplet/nuclear area B-score: higher = more stored lipid (overstorage)
The screen tested about 17,000 reagents; below is an unselected part of those that have a named target and a result. 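Each column is one replicate's B-score; the combined score over replicates was not deposited, so single values may mislead.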 The numbers tell different reagents against one gene apart. Not all columns of the deposit are shown. No sequences are given here.

The first 3 records as a preview:
Ir100a
- droplet/nuclear area B-score, replicate 1: 0.964

CG32652 (retired record) #1
- droplet/nuclear area B-score, replicate 1: 0.179

CG32652 (retired record) #2
- droplet/nuclear area B-score, replicate 1: 0.177

The listing, from the first entry:
Ir100a
- droplet/nuclear area B-score, replicate 1: 0.964

CG32652 (retired record) #1
- droplet/nuclear area B-score, replicate 1: 0.179

CG32652 (retired record) #2
- droplet/nuclear area B-score, replicate 1: 0.177

Aven
- droplet/nuclear area B-score, replicate 1: 0.21

tsh
- droplet/nuclear area B-score, replicate 1: 1.69

hay
- droplet/nuclear area B-score, replicate 1: 0.362

CG14535
- droplet/nuclear area B-score, replicate 1: -0.41

CG10565
- droplet/nuclear area B-score, replicate 1: 0.107

CG9331
- droplet/nuclear area B-score, replicate 1: -2.08

CG16789
- droplet/nuclear area B-score, replicate 1: 1.24

Gr21a
- droplet/nuclear area B-score, replicate 1: -0.471

sr #1
- droplet/nuclear area B-score, replicate 1: -0.583

sr #2
- droplet/nuclear area B-score, replicate 1: 0.583

CG14377
- droplet/nuclear area B-score, replicate 1: 1.24

CG8927
- droplet/nuclear area B-score, replicate 1: -0.107

ppk6
- droplet/nuclear area B-score, replicate 1: -0.156

Ubr1
- droplet/nuclear area B-score, replicate 1: 0.558

Ref2
- droplet/nuclear area B-score, replicate 1: -2.12

CG14654 (retired record)
- droplet/nuclear area B-score, replicate 1: 2.09

mIF2
- droplet/nuclear area B-score, replicate 1: 0.105

CG1492
- droplet/nuclear area B-score, replicate 1: 0.733

bond
- droplet/nuclear area B-score, replicate 1: 0.33

Ptp10D
- droplet/nuclear area B-score, replicate 1: 0.00991

CG32650
- droplet/nuclear area B-score, replicate 1: -0.253

chico
- droplet/nuclear area B-score, replicate 1: -1.02

CG15534
- droplet/nuclear area B-score, replicate 1: -1.23

GLS
- droplet/nuclear area B-score, replicate 1: -1.01
